The results in this text go back to the supplement of paper PMC4635364.

Counter-ions that a name gives are not always drawn. This is one part of the list. This data set is noisy: repeats of one test often differ as much as different tests do.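 ReNCell VM, a human fetal ventral-midbrain neural progenitor line, was differentiated without mitogens. Blinded raters scored images stained for doublecortin (early neurons) or tyrosine hydroxylase (dopaminergic neurons) against untreated wells (0 = no change). Scores were averaged across repeats and both raters, and compounds averaging 2 or more were selected as hits for retesting.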

Experiment [1] deals with ReNCell VM. Description: neuronal differentiation score (DCX+ cell fraction vs untreated, manual image score) (score (-3 to 3)); higher = more neuronal differentiation. The following applies: 2 uM, 2 weeks.
The test system of experiment [2] is ReNCell VM. Description: dopaminergic neuron differentiation score (TH+ cell fraction vs untreated, manual image score) (score (0 to 3)); higher = more TH+ dopaminergic neuron differentiation. The following applies: 2 uM, 4 weeks, BDNF 10 ng/ml + GDNF 10 ng/ml.

On to `C[C@@H](CN1CCC(Cc2ccccc2)CC1)[C@@H](O)c1ccc(O)cc1` [Ro 25-6981 hydrochloride], for which the neuronal differentiation score with ReNCell VM [1] (library: LOPAC) was inactive: 0. Further, the “dopaminergic neuron differentiation score” value in the experiment with ReNCell VM [2] (library: LOPAC) is inactive: 0.

As for `COc1cc(O)ccc1C(C)=O`, the neuronal differentiation score in the experiment on ReNCell VM [1] (library: Spectrum) is inactive: 0. Besides, the “dopaminergic neuron differentiation score” value with ReNCell VM [2] (library: Spectrum) was inactive: 0.

Take `CC(=O)O[C@H]1C[C@@]2(C)[C@@H](C[C@@H](O)[C@H]3[C@@]4(C)CC[C@@H](O)[C@@H](C)[C@@H]4CC[C@@]32C)/C1=C(\CCC=C(C)C)C(=O)O`: the neuronal differentiation score in the experiment on ReNCell VM [1] (library: Spectrum) was inactive: 0. In addition, the “dopaminergic neuron differentiation score” value with ReNCell VM [2] (library: Spectrum) is inactive: 0.

Take `COc1c2ccoc2c(OC)c2oc(=O)ccc12`: the neuronal differentiation score with ReNCell VM [1] (library: Spectrum) was inactive: -1. Moreover, in the experiment on ReNCell VM [2] (library: Spectrum), the “dopaminergic neuron differentiation score” value is inactive: 0.

For the molecule `FC(F)(F)c1cccc(-c2noc(-c3cc(-c4ccccc4)c(C(F)(F)F)s3)n2)c1`, the neuronal differentiation score with ReNCell VM [1] (library: Tocriscreen) was inactive: 0. The “dopaminergic neuron differentiation score” value in the experiment with ReNCell VM [2] (library: Tocriscreen) is inactive: 0.

For `CC(=O)OC1CCC23CC1(C)CCC2C(C)(C)CC3OC(C)=O` (configuration not stated), the neuronal differentiation score with ReNCell VM [1] (library: Spectrum) is inactive: 0. Further, the “dopaminergic neuron differentiation score” value in the experiment with ReNCell VM [2] (library: Spectrum) is inactive: 0.

In the case of `Cn1nnnc1SCC1=C(C(=O)O)N2C(=O)[C@@H](NC(=O)[C@H](OC=O)c3ccccc3)[C@H]2SC1`, the neuronal differentiation score in the experiment on ReNCell VM [1] (library: Spectrum) is inactive: -1. Besides, in the experiment with ReNCell VM [2] (library: Spectrum), the “dopaminergic neuron differentiation score” value is inactive: 0.

In the case of `COCC1=C(C(=O)OC(C)OC(=O)OC(C)C)N2C(=O)[C@@H](NC(=O)/C(=N\OC)c3csc(N)n3)[C@H]2SC1` (some centres not stated), the neuronal differentiation score in the experiment on ReNCell VM [1] (library: Spectrum) is inactive: 0. The “dopaminergic neuron differentiation score” value with ReNCell VM [2] (library: Spectrum) is inactive: 0.

As for `OC[C@H]1O[C@@H](Oc2ccc(O)cc2)[C@H](O)[C@@H](O)[C@@H]1O`, the neuronal differentiation score in the experiment with ReNCell VM [1] (library: Spectrum) is inactive: 0. Besides, the “dopaminergic neuron differentiation score” value with ReNCell VM [2] (library: Spectrum) is inactive: 0.

On to `CC(C)N1CCN(c2ccc(OCC3COC(Cn4cncn4)(c4ccc(Cl)cc4Cl)O3)cc2)CC1` (configuration not stated) [Terconazole], for which the neuronal differentiation score with ReNCell VM [1] (library: Prestwick) is inactive: 0. Further, in the experiment on ReNCell VM [2] (library: Prestwick), the “dopaminergic neuron differentiation score” value is inactive: 0.

On to `COc1c2c(cc3c1C(c1c(O)c4ccccc4oc1=O)N(C)CC3)OCO2` (configuration not stated), for which the neuronal differentiation score in the experiment on ReNCell VM [1] (library: Natural) was inactive: 0. Moreover, the “dopaminergic neuron differentiation score” value in the experiment with ReNCell VM [2] (library: Natural) is inactive: 0.

Regarding `CO[C@@]1(NC(=O)C2SC(=C(C(N)=O)C(=O)O)S2)C(=O)N2C(C(=O)O)=C(CSc3nnnn3C)CS[C@@H]21` (some centres not stated) [Cefotetan], the neuronal differentiation score in the experiment on ReNCell VM [1] (library: Prestwick) was inactive: 0. In the experiment with ReNCell VM [2] (library: Prestwick), the “dopaminergic neuron differentiation score” value is inactive: 0.

Turning to `CCCCCS(=O)(=O)CCCCCCCCCCn1c(-c2ccc(O)cc2)c(C)c2cc(O)ccc21`, the neuronal differentiation score with ReNCell VM [1] (library: Tocriscreen) is inactive: 0. Also, the “dopaminergic neuron differentiation score” value in the experiment with ReNCell VM [2] (library: Tocriscreen) is inactive: 0.

Regarding `CC(C)Cc1ccc([C@H](C)C(=O)O)cc1` [S(+)-Ibuprofen], in the experiment with ReNCell VM [1] (library: LOPAC), the neuronal differentiation score was inactive: 0. In addition, in the experiment on ReNCell VM [2] (library: LOPAC), the “dopaminergic neuron differentiation score” value was inactive: 0.

In the case of `CC(C)CCC[C@@H](C)[C@H]1CC[C@H]2[C@@H]3CC[C@H]4CC(=O)CC[C@]4(C)[C@H]3CC[C@]12C`, in the experiment on ReNCell VM [1] (library: Spectrum), the neuronal differentiation score is inactive: 0. For the same molecule, the “dopaminergic neuron differentiation score” value in the experiment with ReNCell VM [2] (library: Spectrum) is inactive: 0.

Take `Cc1cc(O)c2c(c1)C(=O)c1cccc(O)c1C2=O` [1,8-dihydroxy-3-methylanthraquinone]: the neuronal differentiation score in the experiment with ReNCell VM [1] (library: Natural) was inactive: 0. Further, the “dopaminergic neuron differentiation score” value in the experiment with ReNCell VM [2] (library: Natural) was inactive: 0.

Take `C=CCc1ccc(O)c(-c2ccc(O)c(CC=C)c2)c1` [Honokiol]: in the experiment on ReNCell VM [1] (library: Phytochemical), the neuronal differentiation score is inactive: 0. Moreover, in the experiment with ReNCell VM [2] (library: Phytochemical), the “dopaminergic neuron differentiation score” value is inactive: 0.

As for `CC[C@@H]1C(=O)OC[C@@H]1Cc1cncn1C` [Pilocarpine hydrochloride], the neuronal differentiation score in the experiment on ReNCell VM [1] (library: Tocriscreen) was inactive: 0. The “dopaminergic neuron differentiation score” value with ReNCell VM [2] (library: Tocriscreen) was inactive: 0.

Regarding `C=C1[C@H]2CC[C@@]3(C)[C@H](c4ccoc4)OC(=O)C[C@]13O[C@H]1C[C@H](O)C(C)(C)[C@H](CC(=O)OC)[C@]12C` [3-DEOXY-3beta-HYDROXYANGOLENSIC ACID METHYL ESTER], the neuronal differentiation score in the experiment with ReNCell VM [1] (library: Spectrum) was inactive: 0. Besides, the “dopaminergic neuron differentiation score” value in the experiment on ReNCell VM [2] (library: Spectrum) was inactive: 0.

`CCN1C(=O)C=CC1=O` [N-Ethylmaleimide]: the neuronal differentiation score in the experiment on ReNCell VM [1] (library: LOPAC) was inactive: 1. Also, the “dopaminergic neuron differentiation score” value in the experiment with ReNCell VM [2] (library: LOPAC) was inactive: 0.

Take `COc1cccc2c1C(=O)c1c(O)c3c(c(O)c1C2=O)C[C@@](O)(C(=O)CO)C[C@@H]3O[C@H]1C[C@H](N)[C@H](O)[C@H](C)O1` [adriamycin]: the neuronal differentiation score in the experiment with ReNCell VM [1] (library: Natural) was inactive: 0. Besides, in the experiment on ReNCell VM [2] (library: Natural), the “dopaminergic neuron differentiation score” value was inactive: 0.

`CN1CCCN=C1/C=C/c1cccc(O)c1`: the neuronal differentiation score in the experiment with ReNCell VM [1] (library: Spectrum) was inactive: 0. For the same molecule, in the experiment with ReNCell VM [2] (library: Spectrum), the “dopaminergic neuron differentiation score” value was inactive: 0.

For the molecule `C=C1CC[C@H]2[C@@](C)(CCC[C@@]2(C)C(=O)O)[C@@H]1CCc1ccoc1` [daniellic acid], in the experiment on ReNCell VM [1] (library: Natural), the neuronal differentiation score was inactive: 0. Besides, the “dopaminergic neuron differentiation score” value in the experiment on ReNCell VM [2] (library: Natural) was inactive: 0.

For the molecule `CCN(CC)C(C)CN1c2ccccc2Sc2ccccc21` (configuration not stated) [Ethopropazine hydrochloride], in the experiment on ReNCell VM [1] (library: Prestwick), the neuronal differentiation score was inactive: 0. The “dopaminergic neuron differentiation score” value with ReNCell VM [2] (library: Prestwick) was inactive: 0.

`COc1cc(C(=O)NCCCCCC(=O)O)cc(OC)c1OC`: the neuronal differentiation score with ReNCell VM [1] (library: Spectrum) is inactive: 0. Also, the “dopaminergic neuron differentiation score” value in the experiment with ReNCell VM [2] (library: Spectrum) was inactive: 0.

For `CCOC(N)=O`, the neuronal differentiation score with ReNCell VM [1] (library: Spectrum) was inactive: 0. Besides, in the experiment with ReNCell VM [2] (library: Spectrum), the “dopaminergic neuron differentiation score” value was inactive: 0.
